The exact form of at least one protein or probe is not confirmed. At least one result comes from cells or an extract, where the contact may be indirect. Protein sequences can lack the tags named with them.

Two sequences from PMC7192621 can be followed below.

Data set [1] has as its target T1, Myc (UniProt Q9W4S7).
T1 sequence (looked up): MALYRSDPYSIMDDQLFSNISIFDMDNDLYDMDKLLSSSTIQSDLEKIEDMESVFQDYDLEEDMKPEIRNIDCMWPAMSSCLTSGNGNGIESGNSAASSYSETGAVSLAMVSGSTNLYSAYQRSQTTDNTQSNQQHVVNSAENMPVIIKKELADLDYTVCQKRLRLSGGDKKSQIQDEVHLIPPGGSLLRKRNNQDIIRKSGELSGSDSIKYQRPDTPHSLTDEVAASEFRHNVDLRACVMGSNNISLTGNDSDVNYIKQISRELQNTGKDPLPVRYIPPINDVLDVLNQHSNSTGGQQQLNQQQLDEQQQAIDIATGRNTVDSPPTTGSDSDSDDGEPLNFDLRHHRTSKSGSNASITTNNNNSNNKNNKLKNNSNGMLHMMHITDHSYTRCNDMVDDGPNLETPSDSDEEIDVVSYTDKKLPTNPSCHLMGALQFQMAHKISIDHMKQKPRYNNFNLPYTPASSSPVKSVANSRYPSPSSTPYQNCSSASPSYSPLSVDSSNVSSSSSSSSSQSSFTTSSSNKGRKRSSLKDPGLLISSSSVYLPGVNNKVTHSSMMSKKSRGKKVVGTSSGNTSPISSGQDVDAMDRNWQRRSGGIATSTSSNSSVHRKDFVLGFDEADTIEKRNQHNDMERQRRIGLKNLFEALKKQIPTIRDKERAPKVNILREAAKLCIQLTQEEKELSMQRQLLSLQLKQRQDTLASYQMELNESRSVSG
The data set is described as follows: EMSA. Conditions: 1-7 ug nucleoprotein, dose-dependent, impaired by anti-Myc antibody; EMSA/Gel-Shift Kit (Beyotime), 10 uL, 100 nM probe, 1-7 ug S2 nucleoproteins; 5% PAGE in TBE (45 mM Tris borate, 1 mM EDTA, pH 8.3); binding buffer; protein in a lysate after overexpression; residues 1-717. Background: A gel shift assay detects complexes by their altered migration in electrophoresis.

Data set [2] addresses T1, Myc. Briefly: competition with a labelled probe. Particulars: unlabeled probe, 1-50-fold molar excess, 7 ug nucleoprotein; EMSA/Gel-Shift Kit (Beyotime), 10 uL, 100 nM probe, 1-7 ug S2 nucleoproteins; 5% PAGE in TBE (45 mM Tris borate, 1 mM EDTA, pH 8.3); binding buffer; protein in a lysate after overexpression; residues 1-717.

As to “CAGAAAAAGGCGCCAAAACCGAGCAAAGCACGCAGCTGTAAACATTCGCAA (double strand) [MCM6 promoter E-box probe]”, the binding result with Myc [1] and with Myc [2] was “binds” throughout.
For the sequence “GCTGTGCACCAGTACTGGTCACACTAAAACTATCGAAAATTATCGCACGTATCGCATCT (double strand) [CycB promoter E-box probe]”, the binding result with Myc [1] and in the data set with Myc [2] was “binds” throughout.
